One molecule from patent US20210277097A1 can be followed below.

The target in experiment [1] is recombinant rat RGM A (rat). In words: ELISA on rat RGM A (data not shown). In general terms: ELISA stands for enzyme-linked immunosorbent assay.
Experiment [2] deals with recombinant rat RGM A (rat). The experiment can be described thus: direct ELISA on rRatRGMA.

No constants are given. Whether binding was seen depends on the method and setting. Some binding calls cover weakened binding; strength is not graded here.

B1: rat anti-human RGM A monoclonal antibody 5F9 (antibody, V domains shown)
VH: EVQLVESGGGLVQPGSSLKLSCVASGFTFSNYGMNWIRQAPKKGLEWIGMIYYDSSEKHYADSVKGRFTISRDNSKNTLYLEMNSLRSEDTAIYYCAKGTTPDYWGQGVMVTVSS
VL: DVVLTQTPVSLSVTLGDQASMSCRSSQSLEYSDGYTFLEWFLQKPGQSPQLLIYEVSNRFSGVPDRFIGSGSGTDFTLKISRVEPEDLGVYYCFQATHDPLTFGSGTKLEIKR
Regarding B1, the binding result in experiment [1] and in experiment [2] was “binds” in each case.
